Binding data for three molecules are collected here from article doi:10.1101/2025.09.23.678001.

Protein sequences, listed by entry. Tags and fused reporters are not part of them. Lines headed by an entry give the natural chain unless they say otherwise; changes in a name come on top.
UniProt Q8IIP2: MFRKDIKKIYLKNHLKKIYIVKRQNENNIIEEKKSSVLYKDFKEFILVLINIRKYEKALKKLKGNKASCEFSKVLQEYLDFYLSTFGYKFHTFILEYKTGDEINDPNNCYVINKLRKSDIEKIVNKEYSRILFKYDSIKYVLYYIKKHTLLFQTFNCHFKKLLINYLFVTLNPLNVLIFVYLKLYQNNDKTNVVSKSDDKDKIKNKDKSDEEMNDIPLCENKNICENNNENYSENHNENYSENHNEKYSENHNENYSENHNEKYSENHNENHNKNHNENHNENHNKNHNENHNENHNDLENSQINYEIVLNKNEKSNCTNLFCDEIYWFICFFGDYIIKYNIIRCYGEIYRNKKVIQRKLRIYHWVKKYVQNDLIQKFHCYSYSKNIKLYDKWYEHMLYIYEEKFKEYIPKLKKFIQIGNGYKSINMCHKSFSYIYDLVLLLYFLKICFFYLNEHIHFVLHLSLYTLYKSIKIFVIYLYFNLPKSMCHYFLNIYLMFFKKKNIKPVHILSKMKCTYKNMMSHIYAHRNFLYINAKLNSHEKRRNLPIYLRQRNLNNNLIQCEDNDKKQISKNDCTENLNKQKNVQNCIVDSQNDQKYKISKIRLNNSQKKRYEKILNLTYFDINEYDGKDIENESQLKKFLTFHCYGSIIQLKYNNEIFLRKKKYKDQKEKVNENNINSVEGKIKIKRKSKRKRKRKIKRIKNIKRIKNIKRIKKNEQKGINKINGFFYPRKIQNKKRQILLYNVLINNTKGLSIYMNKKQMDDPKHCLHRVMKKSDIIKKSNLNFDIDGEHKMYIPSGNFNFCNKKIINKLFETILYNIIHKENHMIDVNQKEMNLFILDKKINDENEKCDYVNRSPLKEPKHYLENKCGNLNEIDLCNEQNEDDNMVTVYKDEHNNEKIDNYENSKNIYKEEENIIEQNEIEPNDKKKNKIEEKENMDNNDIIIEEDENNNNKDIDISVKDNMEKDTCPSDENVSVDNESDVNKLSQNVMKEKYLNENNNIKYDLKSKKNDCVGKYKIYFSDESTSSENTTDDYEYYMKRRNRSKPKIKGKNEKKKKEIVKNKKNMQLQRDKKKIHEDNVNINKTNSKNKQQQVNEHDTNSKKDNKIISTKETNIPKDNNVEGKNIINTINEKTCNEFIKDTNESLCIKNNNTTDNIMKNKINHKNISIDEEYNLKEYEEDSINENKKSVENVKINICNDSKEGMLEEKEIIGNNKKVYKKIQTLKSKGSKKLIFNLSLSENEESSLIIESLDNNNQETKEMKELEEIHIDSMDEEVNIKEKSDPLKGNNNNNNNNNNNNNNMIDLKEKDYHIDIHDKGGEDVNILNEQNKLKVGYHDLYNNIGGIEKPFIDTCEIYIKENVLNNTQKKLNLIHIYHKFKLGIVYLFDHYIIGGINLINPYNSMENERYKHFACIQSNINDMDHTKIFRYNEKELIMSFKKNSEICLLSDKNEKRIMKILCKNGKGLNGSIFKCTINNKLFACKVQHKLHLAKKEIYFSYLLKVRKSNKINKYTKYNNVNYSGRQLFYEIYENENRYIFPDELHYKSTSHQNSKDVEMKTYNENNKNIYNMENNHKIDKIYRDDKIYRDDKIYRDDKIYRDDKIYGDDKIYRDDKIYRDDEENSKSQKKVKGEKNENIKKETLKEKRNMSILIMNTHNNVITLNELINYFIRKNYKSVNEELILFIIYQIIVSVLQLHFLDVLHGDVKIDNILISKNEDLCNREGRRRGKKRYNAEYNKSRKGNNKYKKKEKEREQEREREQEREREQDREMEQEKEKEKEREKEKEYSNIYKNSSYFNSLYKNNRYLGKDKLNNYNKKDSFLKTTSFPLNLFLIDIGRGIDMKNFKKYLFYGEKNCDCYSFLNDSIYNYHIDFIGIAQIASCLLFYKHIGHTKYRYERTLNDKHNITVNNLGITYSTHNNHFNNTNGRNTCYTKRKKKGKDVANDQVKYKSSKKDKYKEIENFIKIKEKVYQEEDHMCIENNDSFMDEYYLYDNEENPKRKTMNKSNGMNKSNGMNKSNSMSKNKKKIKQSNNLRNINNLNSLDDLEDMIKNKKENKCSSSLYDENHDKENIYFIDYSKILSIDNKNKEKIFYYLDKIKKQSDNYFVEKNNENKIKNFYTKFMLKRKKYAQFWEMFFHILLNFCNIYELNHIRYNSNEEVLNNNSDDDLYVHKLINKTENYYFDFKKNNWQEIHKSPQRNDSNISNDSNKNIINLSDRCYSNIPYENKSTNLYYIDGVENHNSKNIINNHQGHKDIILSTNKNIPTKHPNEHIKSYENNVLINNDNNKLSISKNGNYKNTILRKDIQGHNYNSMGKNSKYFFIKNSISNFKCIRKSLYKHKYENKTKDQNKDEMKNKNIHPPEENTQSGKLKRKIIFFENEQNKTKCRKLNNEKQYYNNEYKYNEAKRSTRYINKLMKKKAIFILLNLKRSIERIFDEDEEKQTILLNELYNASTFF

Results are given in words; binding and its absence hold for the method and conditions named. In cells and extracts the contact can be indirect. These calls come from enrichment with a bait or labelling near it, and not all partners need be listed.

Test [1] has as its target CENH3 fused to an N-terminal sandwich tag (2xFKBP-GFP-2xFKBP) (P. falciparum (endogenous in 3D7 parasites)) (UniProt Q8IDZ1). Kind of test: proximity labelling.
Test [2] has as its target SMC1 tagged at the C-terminus with GFP (P. falciparum (endogenous in NF54 parasites)) (UniProt Q8II57). Kind of test: proximity labelling.
Test [3] deals with EUC4, C-terminally 2xFKBP-GFP-2xFKBP-tagged (P. falciparum (endogenous in 3D7 parasites)). Kind of test: affinity purification with mass spectrometry.
Test [4] has as its target EUC6, C-terminally 2xFKBP-GFP-2xFKBP-tagged (P. falciparum (endogenous in 3D7 parasites)). Kind of test: affinity purification with mass spectrometry.
Test [5] deals with EUC2, C-terminally 2xFKBP-GFP-2xFKBP-tagged (P. falciparum (endogenous in 3D7 parasites)). Kind of test: affinity purification with mass spectrometry.

For “putative kinase (PF3D7_1112100) (from UniProt Q8IIP2)”, the binding result in test [1] and in test [2] was “binds” throughout.

B1: PF3D7_0505600 (protein, UniProt Q8I446 1-333)
chain: MATILTMQFPSSDEEDEDYFVDEENDNDDEDDDDNNNNNNNNEHNNNEHNNDQHNNNVHNNDQHNNNHMKTIRKKRKGRCKDIKNSIKKSIIKEKIEKTYKDINLEYKQLYSHESNIRNGDFLLQFHKKDPQICKKYNSIDKLYNHLNKYCSIEQDNKNIKNNNQQQNDNHVNNDEDHYSQHYITMKEYKKKSRNDQYVNEIHNNHLVKSALDNFYDNNSIHVEKKYMYAGKIFTIKKKIDKTSASYKRYLKTQDKINIGGNFSNIDELIQNIQEQKQINTIDKSSEDWKQYKLINLVDDDKLKKNQHYLENKFFEENVERRVYENKIKKLHK
For B1, the binding entry in test [3] is given as “binds”.

B2: 14-3-3I (protein, UniProt C0H4V6 1-262)
chain: MATSEELKQLRCDCTYRSKLAEQAERYDEMADAMRTLVEQCVNNDKDELTVEERNLLSVAYKNAVGARRASWRIISSVEQKEMSKANVHNKNVAATYRKKVEEELNNICQDILNLLTKKLIPNTSESESKVFYYKMKGDYYRYISEFSCDEGKKEASNCAQEAYQKATDIAENELPSTHPIRLGLALNYSVFFYEILNQPHQACEMAKRAFDDAITEFDNVSEDSYKDSTLIMQLLRDNLTLWTSDLQGDQTEEKSKDEGLE
Turning to B2, the binding result in test [4] and in test [5] was “binds” throughout.
